Read-outs that look alike come from different tables or passages of the source. No constants are given. Whether binding was seen depends on the method and setting. In cells and extracts the contact can be indirect. Here binding means that the protein was enriched with, or labelled near, the bait; the list need not be complete.

Amino acid sequences for entries named in this document (tags omitted).
UniProt P03372: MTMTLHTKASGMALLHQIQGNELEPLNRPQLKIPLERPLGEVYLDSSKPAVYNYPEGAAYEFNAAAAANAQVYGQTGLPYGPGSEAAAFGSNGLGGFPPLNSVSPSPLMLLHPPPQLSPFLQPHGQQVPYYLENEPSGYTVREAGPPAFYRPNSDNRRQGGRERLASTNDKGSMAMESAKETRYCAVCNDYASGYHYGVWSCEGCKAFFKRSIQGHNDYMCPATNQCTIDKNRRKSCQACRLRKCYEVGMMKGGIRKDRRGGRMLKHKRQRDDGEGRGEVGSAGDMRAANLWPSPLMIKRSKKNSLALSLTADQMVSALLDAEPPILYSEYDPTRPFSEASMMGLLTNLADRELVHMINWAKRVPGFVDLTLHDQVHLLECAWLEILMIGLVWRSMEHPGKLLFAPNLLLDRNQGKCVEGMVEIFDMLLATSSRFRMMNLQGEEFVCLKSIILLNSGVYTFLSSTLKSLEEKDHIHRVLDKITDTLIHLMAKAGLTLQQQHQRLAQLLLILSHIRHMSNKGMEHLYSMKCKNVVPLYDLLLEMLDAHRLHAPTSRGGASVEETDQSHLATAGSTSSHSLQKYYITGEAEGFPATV
UniProt P23771: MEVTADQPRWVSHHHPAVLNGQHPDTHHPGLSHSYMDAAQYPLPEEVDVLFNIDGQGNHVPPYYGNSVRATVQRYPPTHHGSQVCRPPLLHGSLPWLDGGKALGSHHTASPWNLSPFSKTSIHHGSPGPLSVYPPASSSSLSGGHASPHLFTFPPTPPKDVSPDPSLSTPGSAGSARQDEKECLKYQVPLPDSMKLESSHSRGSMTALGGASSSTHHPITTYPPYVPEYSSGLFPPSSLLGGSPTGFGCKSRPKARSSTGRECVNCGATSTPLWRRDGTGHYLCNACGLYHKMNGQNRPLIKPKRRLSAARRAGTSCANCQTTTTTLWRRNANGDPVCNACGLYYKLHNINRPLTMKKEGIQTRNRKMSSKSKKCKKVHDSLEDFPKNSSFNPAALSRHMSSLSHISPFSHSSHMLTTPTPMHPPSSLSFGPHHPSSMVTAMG
UniProt Q13547: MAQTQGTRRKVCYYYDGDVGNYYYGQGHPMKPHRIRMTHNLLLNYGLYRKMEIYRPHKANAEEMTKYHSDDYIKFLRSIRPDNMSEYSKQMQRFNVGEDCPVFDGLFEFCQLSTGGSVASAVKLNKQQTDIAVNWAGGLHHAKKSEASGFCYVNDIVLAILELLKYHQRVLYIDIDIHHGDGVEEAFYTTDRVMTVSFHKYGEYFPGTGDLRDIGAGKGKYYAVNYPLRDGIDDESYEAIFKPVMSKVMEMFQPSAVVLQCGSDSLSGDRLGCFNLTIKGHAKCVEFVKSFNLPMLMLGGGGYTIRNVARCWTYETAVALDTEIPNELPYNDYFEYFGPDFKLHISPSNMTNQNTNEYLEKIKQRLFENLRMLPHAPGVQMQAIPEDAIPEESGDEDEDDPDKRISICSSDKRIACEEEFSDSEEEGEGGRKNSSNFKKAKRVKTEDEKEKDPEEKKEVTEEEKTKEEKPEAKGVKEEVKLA
UniProt P10276: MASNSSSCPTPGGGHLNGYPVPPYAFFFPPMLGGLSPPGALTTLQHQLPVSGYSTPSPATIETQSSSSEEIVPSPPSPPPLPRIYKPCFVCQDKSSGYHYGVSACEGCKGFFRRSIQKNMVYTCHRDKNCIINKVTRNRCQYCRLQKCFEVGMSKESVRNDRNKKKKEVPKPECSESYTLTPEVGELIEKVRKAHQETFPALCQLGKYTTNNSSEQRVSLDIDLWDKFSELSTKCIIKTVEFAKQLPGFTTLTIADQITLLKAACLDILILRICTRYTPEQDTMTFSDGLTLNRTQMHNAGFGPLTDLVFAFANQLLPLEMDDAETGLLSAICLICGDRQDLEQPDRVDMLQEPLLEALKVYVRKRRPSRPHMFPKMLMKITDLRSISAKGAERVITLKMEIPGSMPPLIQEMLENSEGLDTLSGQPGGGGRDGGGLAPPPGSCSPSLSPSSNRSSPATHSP

What all share (experiment): affinity purification with mass spectrometry
The target in experiment [1] is T1, Grainyhead Like Transcription Factor 2 (human (endogenous in MCF7)) (UniProt Q6ISB3).
T1 sequence: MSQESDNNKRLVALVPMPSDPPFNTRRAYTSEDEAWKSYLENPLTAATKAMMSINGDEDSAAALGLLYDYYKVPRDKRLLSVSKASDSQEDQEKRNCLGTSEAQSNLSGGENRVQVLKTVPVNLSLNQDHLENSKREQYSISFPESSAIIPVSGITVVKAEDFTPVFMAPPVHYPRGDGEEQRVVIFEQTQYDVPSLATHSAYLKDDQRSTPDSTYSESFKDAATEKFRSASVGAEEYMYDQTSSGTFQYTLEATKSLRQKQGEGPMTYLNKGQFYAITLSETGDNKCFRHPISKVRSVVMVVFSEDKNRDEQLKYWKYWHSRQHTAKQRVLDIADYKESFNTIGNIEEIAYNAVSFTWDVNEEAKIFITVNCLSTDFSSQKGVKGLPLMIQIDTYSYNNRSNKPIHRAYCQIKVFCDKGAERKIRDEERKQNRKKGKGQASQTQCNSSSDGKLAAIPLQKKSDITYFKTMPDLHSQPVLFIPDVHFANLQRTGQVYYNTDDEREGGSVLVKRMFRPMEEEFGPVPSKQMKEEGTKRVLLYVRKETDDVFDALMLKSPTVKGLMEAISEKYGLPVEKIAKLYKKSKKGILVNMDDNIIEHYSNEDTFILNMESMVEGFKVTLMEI

Experiment [2] concerns the target Estrogen Receptor-alpha (human (endogenous in MCF7)) (UniProt P03372).
Experiment [3] has the same target. The source holds these as a separate data set.
For experiment [4], the target named is T1, Grainyhead Like Transcription Factor 2 (human (endogenous in MCF7)). This is another data set of the same source.

Take “Estrogen Receptor-alpha (from UniProt P03372 1-595)”: in experiment [1], the binding entry is reported as “binds”.
For the molecule GATA3 (from UniProt P23771 1-443), the binding result in experiment [2] is “binds”.
As for HDAC1 (from UniProt Q13547 1-482), the binding entry in experiment [1] was “binds”.
As for RARA (from UniProt P10276 1-462), the binding entry in experiment [2] is recorded as “binds”.

B1: Grainyhead Like Transcription Factor 2 (protein, UniProt Q6ISB3 1-625)
chain: T1 sequence
On to B1, for which the binding result in experiment [3] was “binds”.

B2: TIF1A (protein, UniProt O15164 1-1050)
chain: MEVAVEKAVAAAAAASAAASGGPSAAPSGENEAESRQGPDSERGGEAARLNLLDTCAVCHQNIQSRAPKLLPCLHSFCQRCLPAPQRYLMLPAPMLGSAETPPPVPAPGSPVSGSSPFATQVGVIRCPVCSQECAERHIIDNFFVKDTTEVPSSTVEKSNQVCTSCEDNAEANGFCVECVEWLCKTCIRAHQRVKFTKDHTVRQKEEVSPEAVGVTSQRPVFCPFHKKEQLKLYCETCDKLTCRDCQLLEHKEHRYQFIEEAFQNQKVIIDTLITKLMEKTKYIKFTGNQIQNRIIEVNQNQKQVEQDIKVAIFTLMVEINKKGKALLHQLESLAKDHRMKLMQQQQEVAGLSKQLEHVMHFSKWAVSSGSSTALLYSKRLITYRLRHLLRARCDASPVTNNTIQFHCDPSFWAQNIINLGSLVIEDKESQPQMPKQNPVVEQNSQPPSGLSSNQLSKFPTQISLAQLRLQHMQQQVMAQRQQVQRRPAPVGLPNPRMQGPIQQPSISHQQPPPRLINFQNHSPKPNGPVLPPHPQQLRYPPNQNIPRQAIKPNPLQMAFLAQQAIKQWQISSGQGTPSTTNSTSSTPSSPTITSAAGYDGKAFGSPMIDLSSPVGGSYNLPSLPDIDCSSTIMLDNIVRKDTNIDHGQPRPPSNRTVQSPNSSVPSPGLAGPVTMTSVHPPIRSPSASSVGSRGSSGSSSKPAGADSTHKVPVVMLEPIRIKQENSGPPENYDFPVVIVKQESDEESRPQNANYPRSILTSLLLNSSQSSTSEETVLRSDAPDSTGDQPGLHQDNSSNGKSEWLDPSQKSPLHVGETRKEDDPNEDWCAVCQNGGELLCCEKCPKVFHLSCHVPTLTNFPSGEWICTFCRDLSKPEVEYDCDAPSHNSEKKKTEGLVKLTPIDKRKCERLLLFLYCHEMSLAFQDPVPLTVPDYYKIIKNPMDLSTIKKRLQEDYSMYSKPEDFVADFRLIFQNCAEFNEPDSEVANAGIKLENYFEELLKNLYPEKRFPKPEFRNESEDNKFSDDSDDDFVQPRKKRLKSIEERQLLK
On to B2, for which the binding entry in experiment [4] is listed as “binds”.

The values above are taken from publication doi:10.1101/266908.
